Measurements from paper PMC4071562.
Results are given in words; binding and its absence hold for the method and conditions named. In cells and extracts the contact can be indirect. Some binding calls cover weakened binding; strength is not graded here.

Amino acid sequences for entries named in this document (tags omitted).
UniProt O35099: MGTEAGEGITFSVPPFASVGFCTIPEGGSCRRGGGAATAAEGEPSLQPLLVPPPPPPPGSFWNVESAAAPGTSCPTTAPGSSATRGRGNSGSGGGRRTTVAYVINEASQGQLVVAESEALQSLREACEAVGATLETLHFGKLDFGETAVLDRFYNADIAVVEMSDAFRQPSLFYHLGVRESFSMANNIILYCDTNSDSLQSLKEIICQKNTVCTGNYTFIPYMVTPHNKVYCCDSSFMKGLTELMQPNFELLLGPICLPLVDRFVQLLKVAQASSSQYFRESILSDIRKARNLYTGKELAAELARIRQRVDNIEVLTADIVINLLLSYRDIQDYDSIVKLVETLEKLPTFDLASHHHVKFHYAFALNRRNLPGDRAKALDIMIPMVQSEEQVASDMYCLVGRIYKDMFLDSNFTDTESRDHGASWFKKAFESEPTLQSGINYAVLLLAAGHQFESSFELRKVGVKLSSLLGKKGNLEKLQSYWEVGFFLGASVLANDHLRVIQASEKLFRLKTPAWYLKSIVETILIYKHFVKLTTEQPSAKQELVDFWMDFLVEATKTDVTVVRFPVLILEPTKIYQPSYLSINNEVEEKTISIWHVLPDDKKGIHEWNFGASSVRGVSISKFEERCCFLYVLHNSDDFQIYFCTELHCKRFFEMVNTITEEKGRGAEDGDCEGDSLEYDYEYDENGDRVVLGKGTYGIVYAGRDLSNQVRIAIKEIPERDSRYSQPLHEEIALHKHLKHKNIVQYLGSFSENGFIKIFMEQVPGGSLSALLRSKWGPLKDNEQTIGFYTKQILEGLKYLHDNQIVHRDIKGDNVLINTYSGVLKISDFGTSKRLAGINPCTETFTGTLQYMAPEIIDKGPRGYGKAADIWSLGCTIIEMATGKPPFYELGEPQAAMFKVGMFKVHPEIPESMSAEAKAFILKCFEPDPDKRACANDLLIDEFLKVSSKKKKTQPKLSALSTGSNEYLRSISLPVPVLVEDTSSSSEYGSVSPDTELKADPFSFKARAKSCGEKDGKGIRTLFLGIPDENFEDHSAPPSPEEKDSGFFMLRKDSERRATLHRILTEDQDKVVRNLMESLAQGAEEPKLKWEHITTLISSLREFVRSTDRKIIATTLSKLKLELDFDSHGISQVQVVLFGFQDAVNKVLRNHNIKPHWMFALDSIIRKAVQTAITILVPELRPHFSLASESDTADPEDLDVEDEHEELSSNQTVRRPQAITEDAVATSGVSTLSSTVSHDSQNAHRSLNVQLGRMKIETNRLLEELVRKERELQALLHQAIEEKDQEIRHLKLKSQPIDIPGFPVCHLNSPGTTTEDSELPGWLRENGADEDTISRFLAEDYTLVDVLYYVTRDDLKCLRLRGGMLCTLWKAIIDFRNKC

Biological target: apoptosis signal-regulating kinase 1 (ASK1) (mouse (endogenous in NSC34)) (UniProt O35099)
Assay: co-IP; lysates of NSC34 cells stably expressing Flag-tagged SOD1(WT) or SOD1(G93A) with GFP (control) or CIIA siRNA; immunoprecipitation with antibodies to ASK1 (3 h at 4°C, then 1 h with protein G-agarose), immunoblot with antibodies to TRAF2 or CIIA

Row | Binder | binding
1 | caspase-activated DNase inhibitor that interacts with ASK1 (CIIA) (protein, UniProt Q9D1C8 1-221) MFHGIPATPGVGAPGNKPELYEEVKLYKNAREREKYDNMAELFAVVKTMQALEKAYIKDCVTPNEYTAACSRLLVQYKAAFRQVQGSEISSIDEFCRKFRLDCPLAMERIKEDRPITIKDDKGNLNRCIADVVSLFITVMDKLRLEIRAMDEIQPDLRELMETMHRMSHLPPDFEGRQTVSQWLQTLSGMSASDELDDSQVRQMLFDLESAYNAFNRFLHA | binds
2 | TRAF2 (protein, UniProt P39429 1-501) MAAASVTSPGSLELLQPGFSKTLLGTRLEAKYLCSACKNILRRPFQAQCGHRYCSFCLTSILSSGPQNCAACVYEGLYEEGISILESSSAFPDNAARREVESLPAVCPNDGCTWKGTLKEYESCHEGLCPFLLTECPACKGLVRLSEKEHHTEQECPKRSLSCQHCRAPCSHVDLEVHYEVCPKFPLTCDGCGKKKIPRETFQDHVRACSKCRVLCRFHTVGCSEMVETENLQDHELQRLREHLALLLSSFLEAQASPGTLNQVGPELLQRCQILEQKIATFENIVCVLNREVERVAVTAEACSRQHRLDQDKIEALSNKVQQLERSIGLKDLAMADLEQKVSELEVSTYDGVFIWKISDFTRKRQEAVAGRTPAIFSPAFYTSRYGYKMCLRVYLNGDGTGRGTHLSLFFVVMKGPNDALLQWPFNQKVTLMLLDHNNREHVIDAFRPDVTSSSFQRPVSDMNIASGCPLFCPVSKMEAKNSYVRDDAIFIKAIVDLTGL | binds
